This note sets out measurements from patent US20040171041.

By UniProt entry, the sequences of proteins in these tests, tags left out. Where a name states a change or a piece, a line headed by the entry shows the natural chain unless it says otherwise.
UniProt Q859P9: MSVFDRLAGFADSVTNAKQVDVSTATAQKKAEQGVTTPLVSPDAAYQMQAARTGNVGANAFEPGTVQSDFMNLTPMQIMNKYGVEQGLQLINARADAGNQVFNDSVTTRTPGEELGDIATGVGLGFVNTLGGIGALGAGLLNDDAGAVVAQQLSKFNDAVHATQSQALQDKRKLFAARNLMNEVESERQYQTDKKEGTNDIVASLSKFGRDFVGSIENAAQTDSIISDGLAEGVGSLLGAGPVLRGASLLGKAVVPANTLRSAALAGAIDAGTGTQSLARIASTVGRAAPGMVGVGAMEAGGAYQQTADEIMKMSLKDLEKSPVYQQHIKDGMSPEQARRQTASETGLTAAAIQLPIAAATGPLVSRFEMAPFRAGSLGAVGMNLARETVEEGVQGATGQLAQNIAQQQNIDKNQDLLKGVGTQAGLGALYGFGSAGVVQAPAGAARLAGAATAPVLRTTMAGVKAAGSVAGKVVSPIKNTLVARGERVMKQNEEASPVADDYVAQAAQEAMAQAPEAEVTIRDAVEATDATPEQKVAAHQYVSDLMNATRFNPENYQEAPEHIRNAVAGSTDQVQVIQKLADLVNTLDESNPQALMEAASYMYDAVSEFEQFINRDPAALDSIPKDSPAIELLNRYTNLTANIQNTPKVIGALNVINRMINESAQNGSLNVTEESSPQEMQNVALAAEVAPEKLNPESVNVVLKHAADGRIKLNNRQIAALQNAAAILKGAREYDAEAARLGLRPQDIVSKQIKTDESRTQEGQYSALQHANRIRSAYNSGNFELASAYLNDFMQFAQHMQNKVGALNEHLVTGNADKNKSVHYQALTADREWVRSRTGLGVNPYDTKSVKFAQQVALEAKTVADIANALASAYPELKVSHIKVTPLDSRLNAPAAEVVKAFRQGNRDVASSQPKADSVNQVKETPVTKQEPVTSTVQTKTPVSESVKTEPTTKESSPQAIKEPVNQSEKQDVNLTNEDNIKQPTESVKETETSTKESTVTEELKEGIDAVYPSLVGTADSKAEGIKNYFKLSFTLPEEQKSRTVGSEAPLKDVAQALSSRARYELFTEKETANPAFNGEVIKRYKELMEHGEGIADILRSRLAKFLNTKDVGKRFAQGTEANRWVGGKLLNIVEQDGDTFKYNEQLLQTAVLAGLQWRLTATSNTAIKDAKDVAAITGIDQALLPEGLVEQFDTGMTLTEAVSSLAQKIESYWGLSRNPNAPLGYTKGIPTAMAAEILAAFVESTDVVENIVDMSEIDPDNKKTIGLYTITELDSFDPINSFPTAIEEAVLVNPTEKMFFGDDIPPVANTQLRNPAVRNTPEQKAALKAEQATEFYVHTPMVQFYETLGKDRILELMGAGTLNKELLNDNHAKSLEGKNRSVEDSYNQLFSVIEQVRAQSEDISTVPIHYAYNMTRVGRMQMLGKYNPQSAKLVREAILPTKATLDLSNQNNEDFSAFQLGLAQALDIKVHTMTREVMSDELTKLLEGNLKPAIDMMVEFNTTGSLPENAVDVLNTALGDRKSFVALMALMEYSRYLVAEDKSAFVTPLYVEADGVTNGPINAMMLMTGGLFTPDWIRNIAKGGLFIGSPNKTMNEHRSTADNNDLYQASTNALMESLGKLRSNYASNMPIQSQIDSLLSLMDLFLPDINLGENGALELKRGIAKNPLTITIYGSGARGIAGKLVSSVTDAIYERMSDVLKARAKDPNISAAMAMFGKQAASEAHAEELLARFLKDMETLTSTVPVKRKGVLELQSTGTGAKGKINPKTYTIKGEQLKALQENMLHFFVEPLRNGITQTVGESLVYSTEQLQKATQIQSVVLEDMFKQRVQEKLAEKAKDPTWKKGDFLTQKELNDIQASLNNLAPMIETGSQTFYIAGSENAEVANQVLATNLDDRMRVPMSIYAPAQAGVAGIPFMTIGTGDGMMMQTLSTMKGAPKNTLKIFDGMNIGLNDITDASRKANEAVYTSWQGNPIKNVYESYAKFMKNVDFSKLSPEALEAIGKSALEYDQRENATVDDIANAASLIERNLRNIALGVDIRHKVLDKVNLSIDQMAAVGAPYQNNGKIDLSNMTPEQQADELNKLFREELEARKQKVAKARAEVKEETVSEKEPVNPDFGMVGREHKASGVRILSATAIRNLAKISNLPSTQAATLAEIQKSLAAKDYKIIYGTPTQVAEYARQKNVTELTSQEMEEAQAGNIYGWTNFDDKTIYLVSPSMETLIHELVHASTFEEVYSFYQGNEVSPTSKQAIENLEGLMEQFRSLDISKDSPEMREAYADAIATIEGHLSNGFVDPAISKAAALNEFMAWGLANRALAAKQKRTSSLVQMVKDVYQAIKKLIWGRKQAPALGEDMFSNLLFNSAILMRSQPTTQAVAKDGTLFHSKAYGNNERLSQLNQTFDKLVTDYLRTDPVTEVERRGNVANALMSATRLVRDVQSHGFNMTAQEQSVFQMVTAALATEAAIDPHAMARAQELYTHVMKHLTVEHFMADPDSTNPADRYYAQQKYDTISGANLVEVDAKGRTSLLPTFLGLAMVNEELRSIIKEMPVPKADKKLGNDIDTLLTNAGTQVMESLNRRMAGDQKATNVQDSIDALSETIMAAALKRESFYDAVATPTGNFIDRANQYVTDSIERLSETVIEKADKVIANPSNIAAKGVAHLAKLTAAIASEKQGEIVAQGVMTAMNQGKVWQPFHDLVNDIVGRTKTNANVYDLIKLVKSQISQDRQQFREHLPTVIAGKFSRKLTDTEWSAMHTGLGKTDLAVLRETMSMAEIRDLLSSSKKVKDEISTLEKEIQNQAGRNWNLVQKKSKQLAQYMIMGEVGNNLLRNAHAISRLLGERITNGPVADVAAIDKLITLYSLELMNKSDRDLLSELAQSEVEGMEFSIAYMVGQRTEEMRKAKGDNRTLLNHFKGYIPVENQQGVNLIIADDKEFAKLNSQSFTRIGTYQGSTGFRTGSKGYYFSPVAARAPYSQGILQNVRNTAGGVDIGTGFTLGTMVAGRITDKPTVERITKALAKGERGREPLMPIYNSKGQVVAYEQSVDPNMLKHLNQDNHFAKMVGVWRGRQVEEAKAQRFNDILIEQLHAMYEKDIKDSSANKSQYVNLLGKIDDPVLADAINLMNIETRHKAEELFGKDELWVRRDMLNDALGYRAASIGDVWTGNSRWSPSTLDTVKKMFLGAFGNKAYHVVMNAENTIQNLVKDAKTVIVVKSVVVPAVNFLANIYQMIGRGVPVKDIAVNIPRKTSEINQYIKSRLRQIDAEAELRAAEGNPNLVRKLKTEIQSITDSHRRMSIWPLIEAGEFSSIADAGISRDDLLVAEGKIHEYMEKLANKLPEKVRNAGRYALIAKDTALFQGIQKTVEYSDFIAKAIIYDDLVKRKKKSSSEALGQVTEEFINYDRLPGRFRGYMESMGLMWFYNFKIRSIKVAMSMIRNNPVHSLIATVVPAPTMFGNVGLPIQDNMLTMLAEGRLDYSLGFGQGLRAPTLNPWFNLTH

This data set addresses mini-vRNAP K670A K670A (mini-vRNAP numbering, residue 707 of SEQ 6) (Bacteriophage N4) (UniProt Q859P9). Briefly: binding assay. Conditions: purified recombinant protein, protein details: N-terminal His6, label: 32P end, single-stranded DNA.

For at least one entry, the source does not settle the construct or the ends of the probe.

Take “TCCAAAAGAAGCGGAGCTTC [P2 20-mer 5-Iodo-dU at +3]”: the binding result (5-Iodo-dU at +3, UV crosslinking as wild type, variant of wild-type P2 promoter 20-mer) was “binds”.

Turning to “TCCAAAAGAAGCGGAGCTTC [wild-type P2 promoter 20-mer]”, under “wild-type affinity”, the binding result is reported as “binds”.

Take “TCCAAAAGAAGCGGAGCTTC [P2 20-mer 5-Iodo-dU at -11]”: the binding result (5-Iodo-dU at -11 (loop centre), UV crosslinking as wild type, variant of wild-type P2 promoter 20-mer) was “binds”.
